# Assay results: the supplement of paper PMC3334620
# Whole data set: some 33,000 sequences, median “E-score (-0.5 to 0.5)” near -0.0034, cut for the highest 2% near 0.25. This is one part of the list.
# Molecular target: T1, Yap3 (UniProt P38749)
# T1 sequence: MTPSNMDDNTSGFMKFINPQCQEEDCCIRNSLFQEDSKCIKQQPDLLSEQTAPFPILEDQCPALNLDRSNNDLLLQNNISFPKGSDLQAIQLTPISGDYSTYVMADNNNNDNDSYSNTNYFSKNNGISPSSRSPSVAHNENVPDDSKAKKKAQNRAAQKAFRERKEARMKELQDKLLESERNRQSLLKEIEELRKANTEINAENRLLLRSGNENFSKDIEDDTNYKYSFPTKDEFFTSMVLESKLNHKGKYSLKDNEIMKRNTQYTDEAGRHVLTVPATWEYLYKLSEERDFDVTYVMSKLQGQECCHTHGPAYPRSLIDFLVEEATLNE
# Assay: PBM E-score (8-mer binding enrichment) (E-score (-0.5 to 0.5)); higher = stronger / more preferred TF binding
# Details: protein concentration: 100 nM; construct: GST-full length
# Summary of the method: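 Yeast transcription factors carrying a GST tag, as full-length proteins or DNA-binding domains, were produced by PURExpress in vitro transcription/translation. About 100-200 nM protein was applied to universal all-10-mer Agilent arrays, double-stranded by primer extension on fresh or once-stripped slides. Bound protein was detected with fluorescent anti-GST, and scans were normalised with masliner. The Universal PBM Analysis Suite gave each ungapped eight-base word, pooled with its reverse complement, an E-score, a modified Wilcoxon-Mann-Whitney statistic.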
row,Sequence,PBM E-score
1,CAACGAGC,-0.147
2,GTCCAAAA,0.0341
3,AATCGTGC,0.205
4,GACCATGA,-0.0328
5,ACCAGACA,-0.146
6,CTAGTCGA,0.0352
7,AGTAGTAT,0.0776
8,GGACGTAC,-0.167
9,AACTTGAT,0.15
10,CGAGTCAG,-0.0965
11,CTATACCA,0.0585
12,CAGCTGAG,-0.07
13,CACTCCAG,-0.00573
14,ACAGCAGC,-0.115
15,AATGCCTA,0.00894
16,CGCCAATA,0.109
17,ACTTACCT,-0.028
18,CGACGGCG,-0.0354
19,CTAGGCGC,-0.0349
20,TCATGGGA,0.00531
21,AGTGAGAC,-0.109
22,GAAGTAAA,0.176

row,Sequence,PBM E-score
1,TAATAATA,0.373
2,CTATACAA,0.189
3,ATTGGTGC,0.0296
4,GCGGCGCA,-0.0776
5,GAACAAGA,0.198
6,GGTCCGGA,-0.0474
7,CGATGTTC,-0.131
8,TAGGCTCA,-0.212
9,CAGCACCA,-0.272
10,GTTCTGAA,0.11
11,CGGAGCGC,-0.234
12,AAATAGCC,-0.0263
13,CAGATCCG,0.0708
14,CTTGGAAC,-0.0665
15,GGCAGCAC,-0.196
16,CACAACTG,-0.0612
17,AAAGATGG,-0.0429
18,GCGTTCTA,0.0793
19,CACGGTAC,-0.277
20,CATTATCC,0.211
21,CCTGCACC,-0.217
22,GAGCATGA,0.0306

row,Sequence,PBM E-score
1,GAAGTATA,0.143
2,GAGGAGCA,-0.106
3,CGGGCGTA,-0.142
4,CGGTCTAA,-0.0495
5,TCTTGACA,0.0157
6,ACTAAGTG,-0.00977
7,GCAAAGCC,-0.245
8,AAAACTAG,0.021
9,CCAGAACA,-0.0243
10,ATCGTTTC,0.0597
11,AACCTGGT,-0.0153
12,ACACCCCT,-0.222
13,ACCAGGAA,0.0629
14,ACTAGCCT,0.0133
15,CAGCTCAC,-0.155
16,CTTTGTCC,-0.0016
17,CAATCTGA,-0.0797
18,CCCGCCCA,-0.041
19,ACCAACAG,-0.102
20,ACCCCGCC,-0.135
21,CCGATCGG,-0.0203
22,AATCCGCC,-0.123

row,Sequence,PBM E-score
1,AAATGCTT,-0.018
2,CTCCATGC,-0.144
3,GTTCGGAA,0.19
4,GGCTAGGA,-0.191
5,CCCCTTCA,-0.209
6,ACGTTAGT,0.174
7,ATCCAGAT,-0.127
8,TCAGCACA,0.0431
9,ACGGATGA,0.035
10,GGCAGACC,-0.334
11,AGTGGCGC,0.0259
12,GCGTACCA,-0.0868
13,CGTCAGAA,-0.204
14,CTCTTTCA,0.0223
15,ACCTTCGT,-0.00074
16,AGGGTGTG,-0.104
17,GAGTCGGC,-0.14
18,CAAACGTG,0.0249
19,AACGTCGA,0.103
20,GGCCGGAA,-0.139
21,TAGCATAA,0.0399
22,CACAATAG,-0.0306

# Single values from the entries so far.
# PBM E-score with CGAGTCAG reads -0.0965
# PBM E-score with ACAGCAGC reads -0.115
# PBM E-score with CCCCTTCA reads -0.209

# The list continues:

row,Sequence,PBM E-score
1,ACGGTAGC,-0.0543
2,CTCGCTTC,-0.0534
3,CTACAACC,0.00147
4,GGCGCAGA,-0.045
5,ACATATGG,0.134
6,ATCCCCCA,-0.24
7,AATTTGGC,-0.0745
8,ACGAGCGC,-0.199
9,ATGTGATA,0.255
10,AATTACGT,0.308
11,GCCTAAGC,-0.152
12,ACTGGAAG,-0.11
13,GAACGCCC,-0.0783
14,AGACGGAC,-0.0788
15,GACCGTAA,-0.00788
16,AAGACGGG,-0.0765
17,TAGGACTA,0.00582
18,AAATCTTG,0.0608
19,CAGCAGTA,-0.0879
20,GCATTACC,-0.131
21,CAGCTCTC,-0.305
